Measured values reported in article doi:10.1101/074989.
Results are given in words; binding and its absence hold for the method and conditions named. Some entries that bind do so weakly or less than the wild type.

By UniProt entry, the sequences of proteins in these tests, tags left out.
UniProt P35631: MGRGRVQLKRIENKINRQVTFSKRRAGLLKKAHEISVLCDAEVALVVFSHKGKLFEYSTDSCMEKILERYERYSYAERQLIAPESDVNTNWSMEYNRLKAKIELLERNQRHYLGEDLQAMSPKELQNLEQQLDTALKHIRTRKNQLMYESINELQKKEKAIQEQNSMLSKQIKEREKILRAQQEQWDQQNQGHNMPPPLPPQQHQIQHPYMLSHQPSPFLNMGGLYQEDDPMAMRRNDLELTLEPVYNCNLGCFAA

Tests used:
[1] = target: SHORT … PHASE (Arabidopsis thaliana) (Arabidopsis thaliana) (UniProt Q9FVC1); assay: two-hybrid
[2] = target: T1, AGL24 (Arabidopsis thaliana) (Arabidopsis thaliana) (UniProt O82794); assay: two-hybrid
T1 sequence: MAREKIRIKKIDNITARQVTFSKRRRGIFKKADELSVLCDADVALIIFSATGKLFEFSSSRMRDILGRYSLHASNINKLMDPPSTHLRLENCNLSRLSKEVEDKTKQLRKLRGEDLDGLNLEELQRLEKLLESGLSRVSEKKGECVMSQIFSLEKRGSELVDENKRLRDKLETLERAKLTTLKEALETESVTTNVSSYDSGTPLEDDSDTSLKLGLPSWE

## APETALLA 1 (Arabidopsis thaliana) (from UniProt P35631 1-256)
[1]
  binding: binds
[2]
  binding: binds
